The target of the assay is Thermoplasma acidophilum GINS subunit (TacGins) (Thermoplasma acidophilum) (UniProt Q9HJC8). Put plainly: negative-stain electron microscopy with single particle image analysis; 50 mM Tris-HCl pH 8.0, 40 mM NaCl, 5 μg/ml protein; 2% uranyl acetate; two-dimensional class averages compared with projections of the homology model of the tetramer; both purified.

For one molecule, binding results are on record in PMC3114041, “Architectures of archaeal GINS complexes, essential DNA replication initiation factors” (BMC Biology, 2011).

These are yes or no findings as the source states them, for the method shown. Some results given as binding are weak or reduced against the parent protein; the word gives no strength.

B1: Thermoplasma acidophilum GINS subunit (TacGins) (natural protein, UniProt Q9HJC8 1-233, looked up)
chain: MKPADIDKLISEIRTAIYAEQSHRKIIEIDPDIYRKVRAALSDLQAEASEYFQKQDIENYLTMNNRFQTLKRDFRSLFQRRFEKIVAKAIYDISGETLSLLTDEEKEFIEKIHNIITEEFESFIPKREEKNEARAEAQPAPADESPTAIADQKPQEEPQVVQDQHQPPAEIPSENIEIKKEDGRYVLVMITEDLPPIAQLDRNYSLHSNDLVYLPQDLASILAKRKVALVLDQ
notes: TacGins, conserved hypothetical protein of Thermoplasma acidophilum, gene Ta1042 cloned into pET21a; the homology model counts residues 1 to 233; also called Ta1042; source: E. coli BL21 codonPlus (DE3)-RIL, purified (heat 60°C, polyethyleneimine, HiTrap Phenyl, HiTrap Q)
For B1, the binding result was “binds”.
